Assay results published in publication PMC6010280.
Results are given in words; binding and its absence hold for the method and conditions named. In cells and extracts the contact can be indirect. A yes stands for co-enrichment or nearness to the bait. Other partners may have been found. Sequences can lack the tags named with a protein.

Molecular target: T1, intein-BHMT (betaine homocysteine S-methyltransferase) (R. norvegicus) (UniProt O09171)
T1 sequence: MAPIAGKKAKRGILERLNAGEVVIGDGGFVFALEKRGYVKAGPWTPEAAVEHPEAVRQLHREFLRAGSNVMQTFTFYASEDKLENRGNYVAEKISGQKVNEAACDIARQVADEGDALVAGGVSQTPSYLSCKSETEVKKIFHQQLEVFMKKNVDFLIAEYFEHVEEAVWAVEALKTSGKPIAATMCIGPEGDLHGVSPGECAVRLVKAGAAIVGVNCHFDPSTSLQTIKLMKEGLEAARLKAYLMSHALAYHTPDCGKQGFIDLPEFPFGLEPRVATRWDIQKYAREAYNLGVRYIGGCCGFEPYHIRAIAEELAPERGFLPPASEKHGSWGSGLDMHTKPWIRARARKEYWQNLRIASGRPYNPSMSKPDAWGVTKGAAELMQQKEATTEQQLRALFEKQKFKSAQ
Test: affinity purification with mass spectrometry; same intein-BHMT chitin column after the salt gradient; proteins recovered together with BHMT upon intein excision with 30 mM 2-mercaptoethanol, 48 h at 23°C (strong interactors); LC-MS/MS; only the target purified

B1: Homeobox protein Nkx-6.1 (protein, UniProt O35762 1-365)
chain: MLAVGAMEGPRQSAFLLSSPPLAALHSMAEMKTPLYPAAYPPLPTGPPSSSSSSSSSSSPSPPLGAHNPGGLKPPAAGGLSSLGSPPQQLSAATPHGINDILSRPSMPVASGAALPSASPSGSSSSSSSSASATSASAAAAAAAAAAAAAASSPAGLLAGLPRFSSLSPPPPPPGLYFSPSAAAVAAVGRYPKPLAELPGRTPIFWPGVMQSPPWRDARLACTPHQGSILLDKDGKRKHTRPTFSGQQIFALEKTFEQTKYLAGPERARLAYSLGMTESQVKVWFQNRRTKWRKKHAAEMATAKKKQDSETERLKGTSENEEDDDDYNKPLDPNSDDEKITQLLKKHKSSGGSLLLHASEAEGSS
For B1, the binding was “binds”.

B2: Protein phosphatase 1H (protein, UniProt Q5M821 1-513)
chain: MLTRVKSAVANFMGGIMAGSSGSEHGGSGCGGSDLPLRFPYGRPEFLGLSQDEVECSADHIARPILILKETRRLPWATGYAEVINAGKSTHNEDQASCEVLTVKKKVGTITSTPNRNSKRRSSLPNGEGLQLKENSESEGISCHYWSLFDGHAGSGAAVVASRLLQHHITQQLQDIVEILKNSAILPPTCLGEEPESTPAHGRTLTRAASLRGGVGAPGSPSTPPTRFFTEKKIPHECLVIGALESAFKEMDLQIERERSAYNISGGCTALIVVCLLGKLYVANAGDSRAIIIRNGEIIPMSSEFTPETERQRLQYLAFMQPHLLGNEFTHLEFPRRVQRKELGKKMLYRDFNMTGWAYKTIEDDDLKFPLIYGEGKKARVMATIGVTRGLGDHDLKVHDSNIYIKPFLSSAPEVRVYDLSKYEHGADDVLILATDGLWDVLSNEEVAEAITQFLPNCDPDDPHRYTLAAQDLVMRARGVLKDRGWRISNDRLGSGDDISVYVIPLIHGNKLS
With B2 the binding was “binds”.

B3: Septin-10 (protein, UniProt Q5PQK1 1-456)
chain: MASCDEVRQLKKEHTRSLTMCGHVGFESLPDQLVDRSIEQGFCFNILCVGETGIGKSTLINTLFNTNFEELESSHFCPCVRLRAQTYELQESNVRLKLTIVNTVGFGDQINKEESYQPIVDYIDNQFEAYLQEELKIKRALFNYHDSRIHVCLYFIAPTGHSLRTLDLLTMKSLDNKVNIIPLIAKADTISKSELQKFKMKLMSELVINGVQIYQFPTDDDTTAKINGAMNGHLPFAVVGSMDEIKVGNKMVKARQYPWGIVQVENENHCDFVKLREMLICTNMEDLREQTHMRHYELYRRCKLQEMGFIDIGPENKPLSLQETYEAKRHEFCGERQRKEEQMKQMFVQRVKEKEAILKEAERELQAKFEHLKRIHQEERMKLEEKRRMLEEESVAFAKKKATCELFPHQSFLASGSSIRRDKDRKKTDGASAFCDCITAQENVRLCISSQRKEMD
In the case of B3, the binding is reported as “binds”.

B4: Elongator complex protein 1 (protein, UniProt Q8VHU4 1-1331)
chain: MRNLKLHQTLEFRDIQAPGKPQCFCLRAEQGTVLIGSERGLTEVDPVKKEVKTEISLVAEGFLPEDGSGCIVGIQDLLDQESVCVATASGDVIVCNVSTQQLECVGNVASGISVMSWSPDQELLLLATAQQTLIMMTRDYEVITEQQIHQDDFGEGKFITVGWGSKDTQFHGSEGRPITFPVQMHESALSWDDHRPQITWRGDGQFFAVSVVCSQTGARKIRVWNREFALQSTSESVPGLGPSLAWKPSGSLIASTQDKPNQQDVVFFEKNGLLHGYFTLPFLKDEVKVNDLLWNADSSVLAVWLEDLPKEGSSTLKSYVQLWTVGNYHWYLKQSLPFSTTGKNQIVSLLWDPVTPGRLHVLCQGWRYLCCDWHWTTDRSSGNSADDLANVAVIDGNKVLVTVFQRTVTPPPMCTYRLLIPHPVNQVMSSAHLGNDLAVLDASNQISVYKCDDKPDMDSTVKLGAVGGTGFKVPLRTPHLEKRYRIQFGNKEEEEDVSPLQFRFLTWIEGDAFLAISHSHSSPQSIIHHLTMAGSEGDEEQGQLNVSSSVTVDGVVIGLCCCSKTKSSAVQLADGQVLKYLWESPSSAVEPWKNSEGRPVRFARPCTQMEAAAIGGEECVLGLTDRCRFFINDTEVASNITSFAVCDDFLLVTTHSHTCQCFSLSGASLKMLQAGLCGSQVPSGEILRKVERGSRIVTVVPQDTKLILQMPRGNLEVVHHRALVLAQIRKWLDKLMFKEAFECMRKLRINLNLIHDHNPKVFLENVETFIKQIDSVNHLNLFFTELKEEDVTKTMYPPPVTKSVQVSTNPDGKKVDLICDAMRVAMETINPRKFCLSILTSHVKKTTPELDIVLQKVHELQGKIPFVPESVSAEEALKYLLLLVDVNELFNHSLGTYDFDLVLMVAEKSQKDPKEYLPFLNTLKKMETNYQRFTIDKYLKRYEKALGHLSKCGPEYFTECLNLIKDKNLYKEALKLYRPDSPQYQAVSVAYGEHLVQELLYEPAGLVFARCGAHEKALEAFLACGSWQQALCMAAQLQMAKDKVAGLARTLAGKLVEQRKHSEAATVLEQYALDYEEAVLLLLEGSAWEEALRLVYKYDRVDIIETSVKPSILEAQKNYMDFLDSQTATFIRHKNRLKVVRELKSQRPRVHVDHEVAHGRETDLFSETSSIRSGSEMSGRYSHSNSRISARSSKNRRKAERKKHSLKEGSPLEGLALLEALSEVVQSIEKLKDEVHAILKVLFLFEFEEQARELQRAFESTLQLMGTALPDIWTLTGQQSSSTPVLGPSSTVNSIMASYQQQKTCVPVLDAWACLPPKIDQRSQWKLSLLE
B4 was tested, and the binding was “binds”.

B5: UDP-glucose 6-dehydrogenase (protein, UniProt O70199 1-493)
chain: MVEIKKICCIGAGYVGGPTCSVIARMCPEIRVTVVDVNEARINAWNSPTLPIYEPGLKEVVESCRGKNLFFSTNIDDAIREADLVFISVNTPTKTYGMGKGRAADLKYIEACARRIVQNSNGYKIVTEKSTVPVRAAESIRRIFDANTKPNLNLQVLSNPEFLAEGTAIKDLKNPDRVLIGGDETPEGQRAVQALCAVYEHWVPKEKILTTNTWSSELSKLAANAFLAQRISSINSISALCESTGADVEEVATAIGMDQRIGNKFLKASVGFGGGCFQKDVLNLVYLCEALNLPEVARYWQQVIDMNDYQRRRFASRIIDSLFNTVTDKKIAILGFAFKKDTGDTRESSSIYISKYLMDEGAHLHIYDPKVPREQIVVDLSHPGVSADDQVSRLVTISKDPYEACDGAHALVICTEWDMFKELDYERIHKRMLKPAFIFDGRRVLDGLHNELQTIGFQIETIGKKVSSKRIPYTPGEIPKFSLQDPPNKKPKV
In the case of B5, the binding is reported as “binds”.

B6: 3-alpha-hydroxysteroid dehydrogenase (protein, UniProt P23457 1-322)
chain: MDSISLRVALNDGNFIPVLGFGTTVPEKVAKDEVIKATKIAIDNGFRHFDSAYLYEVEEEVGQAIRSKIEDGTVKREDIFYTSKLWSTFHRPELVRTCLEKTLKSTQLDYVDLYIIHFPMALQPGDIFFPRDEHGKLLFETVDICDTWEAMEKCKDAGLAKSIGVSNFNCRQLERILNKPGLKYKPVCNQVECHLYLNQSKMLDYCKSKDIILVSYCTLGSSRDKTWVDQKSPVLLDDPVLCAIAKKYKQTPALVALRYQLQRGVVPLIRSFNAKRIKELTQVFEFQLASEDMKALDGLNRNFRYNNAKYFDDHPNHPFTDE
With B6 the binding was “binds”.

B7: Pleckstrin homology domain-containing family A member 4 (protein, UniProt P60669 1-779)
chain: MEQGRPRSSLSLTSSASTVSSLSSLSAKKPTRVVHKVHAFGKRNNALRRDPNLPVHIRGWLHKQDSSGLRLWKRRWFVLSGHCLFYYKDSREESVLGSVLLPSYSVRPDGPGAPRGRRFTFTAEHPGMRTYVLAADTLEDLRGWLRALGKASRAEGEDCGLPRSPARPRPGEGPGGPGGPPEVNRREEGRTSESPEVAPLSRGPGRHEMHAPGSSADLQPDTWSRRTRSPEPFSPLSRPPSPLSLPRPRSAPVRRPPLSAGDISFPARPHTPLSRIDVRPPLDWGPQRQTLSRPPIPRRGPFSEAGGGRPPRSPQLRTPEHRTQSTQVSSGSSTYLQLPPRPPGTQASMILLPGPPVDSTLHQSLETDTLLTKLCGQDRLLRQLQEDLDKRQEEKEQLEAALELTRQQLGQATREAAASGKAWGRQRLLQDRLVNVRAALCHLTQERERVWDTYSGLEQDLGTLRETLEYLLHLGSPQDRASAQQQLWMVEDTLAGLGGPQKQPPHTEPKSPSPAPQREESSERESLSESLELSSPQSPEVDWGQPPGGDRALSSSQSGVGSPRVSRASSPECRQQSSPLLRTKAPLARPRMSAQEQLERMRRNQACGLSLPRPTSPRLLTLGRTLSPVPRQPDMEQRPIVGAAKWLRSSGSWSSPRHSTTYSPVSGGHRERVLSLSQALATEASQWHRLMTASPERNLDTRGDCLQPSPQPPSEELPQVTSSPTSHKANSATTGFSCQGSGRGLAPWEPRWDPGKAPPALAQEEGAWPLRVTLLQSSF
B7 was tested, and the binding was “binds”.

B8: ATP-sensitive inward rectifier potassium channel 11 (protein, UniProt P70673 1-390)
chain: MLSRKGIIPEEYVLTRLAEDPTEPRYRTRERRARFVSKKGNCNVAHKNIREQGRFLQDVFTTLVDLKWPHTLLIFTMSFLCSWLLFAMVWWLIAFAHGDLAPGEGTNVPCVTSIHSFSSAFLFSIEVQVTIGFGGRMVTEECPLAILILIVQNIVGLMINAIMLGCIFMKTAQAHRRAETLIFSKHAVITLRHGRLCFMLRVGDLRKSMIISATIHMQVVRKTTSPEGEVVPLHQVDIPMENGVGGNSIFLVAPLIIYHVIDSNSPLYDLAPSDLHHHQDLEIIVILEGVVETTGITTQARTSYLADEILWGQRFVPIVAEEDGRYSVDYSKFGNTVKVPTPLCTARQLDEDRSLLDALTLASSRGPLRKRSVAVAKAKPKFSISPDSLS
B8 was tested, and the binding was “binds”.

B9: Serine/arginine-rich splicing factor 5 (protein, UniProt Q09167 1-269)
chain: MSGCRVFIGRLNPAAREKDVERFFKGYGRIRDIDLKRGFGFVEFEDPRDADDAVYELDGKELCSERVTIEHARARSRGGRGRGRYSDRFSSRRPRNDRRNAPPVRTENRLIVENLSSRVSWQDLKDFMRQAGEVTFADAHRPKLNEGVVEFASYGDLKNAIEKLSGKEINGRKIKLIEGSKRHRSRSRSRSRTRSSSRSRSRSRSRRSKSYSRSRSRSRSRSKSRSGSRSPVPEKSQKRGSSSRSKSPASVDRQRSRSRSRSRSVDSGN
In the case of B9, the binding is reported as “binds”.

B10: Centromere protein U (protein, UniProt Q4V8G7 1-410)
chain: MAARRSLRYSGDPGAKRSRNTLGSTNSRKQKAGQKPKRKDVFDFPNTSDVSSMLRELEEEEPYETFDPPLHSTAIYTDDELYKHCVSSTSPATHRGKESRNLNPSENEASGNDSIKLSAKKPRRKLEPISDESDSSEDNVRRSVSIERPRARKPPAAPAAASSSSSPSERPAEQVTPRKTSFPQPSAVEETPAAQSQLKTQKKVRPSPGRRKRPRRGSTHSDASESMHILCLEGKRQSDVMELDVVLSAFERTFLDYKQRVESESCNQAISKFYFKIKGELIRMLKEVQMLKALKRKNTKIISNMEKKRQRLIDVQDELIRLEPQLKQLQTKYDDLKKRKSALKNSKHFLSNLKQLYQDYSNVREEEPKEKEKYDSSSLPALLFKARSILGAEKHLKTINYHLGKLLKQD
With B10 the binding was “binds”.
